Publication PMC11335345
Results are given in words; binding and its absence hold for the method and conditions named. Binding seen in cells or lysates may run through a third protein. Some results given as binding are weak or reduced against the parent protein; the word gives no strength. Tags and fused reporters may be left off the sequences shown.

The chains behind the UniProt entries cited, without tags or fusion partners.
UniProt Q9WTX5: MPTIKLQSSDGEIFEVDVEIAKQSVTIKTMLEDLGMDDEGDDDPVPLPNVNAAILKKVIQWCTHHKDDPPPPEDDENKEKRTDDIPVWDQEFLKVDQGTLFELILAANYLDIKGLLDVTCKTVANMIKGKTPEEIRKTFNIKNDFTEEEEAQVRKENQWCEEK
UniProt Q14974: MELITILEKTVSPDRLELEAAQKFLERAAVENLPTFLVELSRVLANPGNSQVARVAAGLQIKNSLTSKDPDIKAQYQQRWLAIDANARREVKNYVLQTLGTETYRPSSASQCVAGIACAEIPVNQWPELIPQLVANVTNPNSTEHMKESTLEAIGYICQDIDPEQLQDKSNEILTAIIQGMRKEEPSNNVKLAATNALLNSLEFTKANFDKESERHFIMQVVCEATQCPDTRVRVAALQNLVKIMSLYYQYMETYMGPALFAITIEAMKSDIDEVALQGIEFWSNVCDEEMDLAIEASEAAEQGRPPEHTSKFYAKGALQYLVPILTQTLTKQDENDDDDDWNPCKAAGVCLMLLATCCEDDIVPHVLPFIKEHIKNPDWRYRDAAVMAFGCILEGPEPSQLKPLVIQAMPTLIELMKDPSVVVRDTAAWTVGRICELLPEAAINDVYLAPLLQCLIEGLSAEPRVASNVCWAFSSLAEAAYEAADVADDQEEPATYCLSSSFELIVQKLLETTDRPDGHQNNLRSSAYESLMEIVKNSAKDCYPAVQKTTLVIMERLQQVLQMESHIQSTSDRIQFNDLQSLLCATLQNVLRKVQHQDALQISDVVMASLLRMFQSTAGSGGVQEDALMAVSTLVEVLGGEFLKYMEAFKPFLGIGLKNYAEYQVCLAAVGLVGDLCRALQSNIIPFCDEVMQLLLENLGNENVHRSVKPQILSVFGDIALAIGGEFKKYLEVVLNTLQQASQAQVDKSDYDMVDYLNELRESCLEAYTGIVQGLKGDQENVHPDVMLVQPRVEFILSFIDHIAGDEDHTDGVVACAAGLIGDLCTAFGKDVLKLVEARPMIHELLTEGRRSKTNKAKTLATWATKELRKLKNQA

T1: FBXO24 (F-box protein 24) tagged with 3×FLAG, wild type (mouse) (UniProt Q9D417)
T1 sequence: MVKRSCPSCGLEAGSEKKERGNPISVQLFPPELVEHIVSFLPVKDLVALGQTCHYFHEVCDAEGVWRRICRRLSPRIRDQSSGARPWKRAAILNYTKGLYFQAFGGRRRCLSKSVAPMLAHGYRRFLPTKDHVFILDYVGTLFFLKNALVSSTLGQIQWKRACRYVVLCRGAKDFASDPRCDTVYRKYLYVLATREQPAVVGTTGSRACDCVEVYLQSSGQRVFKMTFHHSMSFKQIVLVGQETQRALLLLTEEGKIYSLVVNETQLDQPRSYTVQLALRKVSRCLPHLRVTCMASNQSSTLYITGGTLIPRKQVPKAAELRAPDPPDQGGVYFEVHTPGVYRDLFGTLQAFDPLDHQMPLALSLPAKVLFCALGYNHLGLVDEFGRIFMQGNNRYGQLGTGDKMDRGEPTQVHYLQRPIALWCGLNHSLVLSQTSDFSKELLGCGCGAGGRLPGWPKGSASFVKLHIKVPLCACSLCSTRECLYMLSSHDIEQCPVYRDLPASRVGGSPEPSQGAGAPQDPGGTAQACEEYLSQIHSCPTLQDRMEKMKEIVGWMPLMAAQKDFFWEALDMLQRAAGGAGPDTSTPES

T2: FBXO24-3×FLAG expressed in testes of transgenic mice under the Prm1 promoter (mouse) (UniProt Q9D417)
T2 sequence: T1 sequence

B1: FBXO24 (F-box protein 24) tagged with 3×FLAG, wild type (protein, UniProt Q9D417 1-589)
chain: T1 sequence
B2: IPO5 (importin 5), endogenous in mouse testis (protein, UniProt Q8BKC5 1-1097)
chain: MAAAAAEQQQFYLLLGNLLSPDNVVRKQAEETYENIPGRSKITFLLQAIRNTTAAEEARQMAAVLLRRLLSSAFDEVYPALPSDVQTAIKSELLMIIQMETQSSMRKKICDIAAELARNLIDEDGNNQWPEGLKFLFDSVSSQNMGLREAALHIFWNFPGIFGNQQQHYLDVIKRMLVQCMQDQEHPSIRTLSARATAAFILANEHNVALFKHFADLLPGFLQAVNDSCYQNDDSVLKSLVEIADTVPKYLRPHLEATLQLSLKLCGDTNLNNMQRQLALEVIVTLSETAAAMLRKHTSLIAQTIPQMLAMMVDLEEDEDWANADELEDDDFDSNAVAGESALDRMACGLGGKLVLPMIKEHIMQMLQNPDWKYRHAGLMALSAIGEGCHQQMEGILNEIVNFVLLFLQDPHPRVRYAACNAVGQMATDFAPGFQKKFHEKVIAALLQTMEDQGNQRVQAHAAAALINFTEDCPKSLLIPYLDNLVKHLHSIMVLKLQELIQKGTKLVLEQVVTSIASVADTAEEKFVPYYDLFMPSLKHIVENAVQKELRLLRGKTIECISLIGLAVGKEKFMQDASDVMQLLLKTQTDFNDMEDDDPQISYMISAWARMCKILGKEFQQYLPVVMGPLMKTASIKPEVALLDTQDMENMSDDDGWEFVNLGDQQSFGIKTAGLEEKSTACQMLVCYAKELKEGFVEYTEQVVKLMVPLLKFYFHDGVRVAAAESMPLLLECARVRGPEYLTQMWHFMCDALIKAIGTEPDSDVLSEIMHSFAKCIEVMGDGCLNNEHFEELGGILKAKLEEHFKNQELRQVKRQDEDYDEQVEESLQDEDDNDVYILTKVSDILHSIFSSYKEKVLPWFEQLLPLIVNLICPQRPWPDRQWGLCIFDDIVEHCSPASFKYAEYFISPMLQYVCDNSPEVRQAAAYGLGVMAQFGGDNYRPFCTDALPLLVRVIQAPEAKTKENVNATENCISAVGKIMKFKPDCVNVEEVLPHWLSWLPLHEDKEEAVQTFSYLCDLIESNHPIVLGPNNTNLPKIFSIIAEGEMHEAIKHEDPCAKRLANVVRQVQTSGGLWTECIAQLSPEQQAAIQELLNSA
B3: IPO5 (importin 5), endogenous in HEK293T cells (protein, UniProt O00410 1-1097)
chain: MAAAAAEQQQFYLLLGNLLSPDNVVRKQAEETYENIPGQSKITFLLQAIRNTTAAEEARQMAAVLLRRLLSSAFDEVYPALPSDVQTAIKSELLMIIQMETQSSMRKKVCDIAAELARNLIDEDGNNQWPEGLKFLFDSVSSQNVGLREAALHIFWNFPGIFGNQQQHYLDVIKRMLVQCMQDQEHPSIRTLSARATAAFILANEHNVALFKHFADLLPGFLQAVNDSCYQNDDSVLKSLVEIADTVPKYLRPHLEATLQLSLKLCGDTSLNNMQRQLALEVIVTLSETAAAMLRKHTNIVAQTIPQMLAMMVDLEEDEDWANADELEDDDFDSNAVAGESALDRMACGLGGKLVLPMIKEHIMQMLQNPDWKYRHAGLMALSAIGEGCHQQMEGILNEIVNFVLLFLQDPHPRVRYAACNAVGQMATDFAPGFQKKFHEKVIAALLQTMEDQGNQRVQAHAAAALINFTEDCPKSLLIPYLDNLVKHLHSIMVLKLQELIQKGTKLVLEQVVTSIASVADTAEEKFVPYYDLFMPSLKHIVENAVQKELRLLRGKTIECISLIGLAVGKEKFMQDASDVMQLLLKTQTDFNDMEDDDPQISYMISAWARMCKILGKEFQQYLPVVMGPLMKTASIKPEVALLDTQDMENMSDDDGWEFVNLGDQQSFGIKTAGLEEKSTACQMLVCYAKELKEGFVEYTEQVVKLMVPLLKFYFHDGVRVAAAESMPLLLECARVRGPEYLTQMWHFMCDALIKAIGTEPDSDVLSEIMHSFAKCIEVMGDGCLNNEHFEELGGILKAKLEEHFKNQELRQVKRQDEDYDEQVEESLQDEDDNDVYILTKVSDILHSIFSSYKEKVLPWFEQLLPLIVNLICPHRPWPDRQWGLCIFDDVIEHCSPASFKYAEYFLRPMLQYVCDNSPEVRQAAAYGLGVMAQYGGDNYRPFCTEALPLLVRVIQSADSKTKENVNATENCISAVGKIMKFKPDCVNVEEVLPHWLSWLPLHEDKEEAVQTFNYLCDLIESNHPIVLGPNNTNLPKIFSIIAEGEMHEAIKHEDPCAKRLANVVRQVQTSGGLWTECIAQLSPEQQAAIQELLNSA

How the values were obtained:
[1] = target: T1, FBXO24 (F-box protein 24) tagged with 3×FLAG, wild type (mouse); assay: co-IP; 3×FLAG-tagged Fbxo24 transiently expressed in HEK293T cells; IP with anti-FLAG antibody; endogenous IPO5 and KPNB1 detected by immunoblotting
[2] = target: SKP1 tagged with 1D4 (mouse) (UniProt Q9WTX5); assay: co-IP; Fbxo24 (WT or ΔF)-FLAG co-expressed with Skp1-1D4 in HEK293T cells; 1% Triton X-100 lysis buffer (50 mM Tris-HCl pH 7.4, 150 mM NaCl); IP with anti-1D4 or anti-FLAG antibody on Protein G magnetic beads, 1 hr at 4°C; immunoblotting
[3] = target: T2, FBXO24-3×FLAG expressed in testes of transgenic mice under the Prm1 promoter (mouse); assay: co-IP; IP of FBXO24-FLAG from Fbxo24-FLAG Tg mouse testes with anti-FLAG antibody; IPO5 detected by immunoblotting with mouse anti-IPO5 monoclonal antibody

Molecule	binding [1]	also measured
KPNB1 (karyopherin subunit beta 1), endogenous in HEK293T cells (from UniProt Q14974 1-876)	no binding	
B1		binding [2]: binds
B2		binding [3]: binds
B3	binds	
